# Data taken from patent USRE37770E1, “Treatment of skin conditions by use of PPARα activators” (The Regents of the University of California, priority 1997, dated 2002).
# At least one compound was matched to its structure with a doubt left. Some results were stated once for a whole list of compounds, not compound by compound.
# Assays:
# [1] = tested on: full-thickness flank skin from the fetal rats; assay: Transepidermal water loss (TEWL) of fetal rat skin explants in organ culture (barrier function); format: cell-based, Sprague-Dawley rats; details: two days
# Protocol: Timed pregnant Sprague-Dawley rats (plug date=day 0) were obtained from Simonsen (Gilroy, Calif., USA) and fetuses were delivered prematurely on day 17. Transepidermal water loss (TEWL) was measured in excised full-thickness flank skin from the fetal rats after various times in culture. The skin explants were placed dermis-side down onto collagen membrane inserts (3μ pore size) in medium M-199 (serum-free), and submerged, and the lateral edges and dermal surface were sealed with petrolatum, such that water loss occurred only through the epidermal surface. Explant samples were weighed hourly, at ambient temperature (24±3° C.) and humidity (40±5%), over 6 hours using a Cahn balance (sensitivity 0.001 mg). TEWL levels are reported as milligrams of water lost per square millimeter of epidermal surface per hour. Fatty acids and clofibrate (p-chlorophenoxyisobutyric acid) were added to the medium bound to 0.5% (weight/volume) bovine serum albumin (BSA). Isoprenoids and oxysterols were added in ethanol (≦0.1%) and juvenile hormone III was added as a dimethylsulfoxide (DMSO) solution (≦0.1%). Control explants were incubated in the presence of the appropriate vehicle (≦0.1% DMSO or ethanol, and/or ≦0.5% BSA). Skin explants from gestational day 17 rats were incubated in the presence of either various activators or vehicle, and transepidermal water loss was measured after two days. […]
# involucrin mRNA = assay: Involucrin mRNA in keratinocytes by Northern Blot; format: cell-based, Human; details: for INV mRNA level, induction: calcium 1.2 mM, 10 μM
# Protocol: (§1) Human keratinocyte cells were incubated in culture containing calcium at a concentration of 0.03 mM Ca^++ (a level that is too low to induce differentiation). Also included in the culture medium were clofibrate at 400 μM or ETYA at 10 μM and 20 μM, while separate cell cultures were maintained as controls with neither clofibrate nor ETYA. The production of mRNA for both involucrin and transglutaminase was measured at intervals over a 48-hour time period (0, 6, 12, 24, and 48 hours) by Northern Blot analysis. In each case, the lighter bars represent the control cells and the darker bars the cells incubated in the clofibrate-containing medium. The degree of mRNA generated is expressed as a percent of the control at zero hours.
# (§2) Human epidermis was isolated from newborn foreskins and keratinocytes were plated in serum-free keratinocyte growth medium (“KGM”; Clonetics, San Diego, Calif. USA), using conventional techniques. Cells were treated with either the test compounds in vehicle or vehicle alone (<0.1% ethanol) for 24 or 48 hours. The test compounds were obtained from Sigma Chemical Co. (St. Louis. Mo. USA) and were stored as 15 mM stock solutions at −20° C. Mevalonate was solubilized in sterile water.
# (§3) Total RNA was isolated by using TRIZOL (Sigma Chemical Co.), following the manufacturer's protocol. Ethanol-precipitate RNA pellets were suspended in sterile, diethylpyrocarbonate (DEPC)-treated water, and RNA was quantified by absorbance at 260 nm using the 260/280 nm ratio as an index of purity. RNA (15 μg per sample) was size fractionated through a 1% agarose gel containing 2.2 M formaldehyde. RNA integrity was visualized following acridine orange staining of the gel following electrophoresis. The RNA was transfered to a nylon membrane that was subsequently baked at 80° C. for 2 hours. Blots were hybridized with the appropriate ^32p-labeled probe overnight at 65° C. Washes were then performed in a solution containing 0.1% SSC and 0.1% sodium dedecyl sulfate (SDS) for 20 minutes at room temperature, followed by a 20-minute wash at 65° C. Autoradiography was performed at −70° C. Blots were probed with β-actin to confirm equal loading. Appropriate bands were quantified by densitometry.
# (§4) Northern blot analyses were performed on keratinocytes maintained in low calcium (0.03 mM) and incubated for 24 hours in the presence of vehicle alone (<0.1% ethanol) or vehicle containing 25-hydroxycholesterol (10 μM), 22(R)-hydroxycholesterol (10 μM) cholesterol (10 μM), or mevalonate (500 μM) (individually). The mRNA levels of involucrin (“INV”) and transglutaminase (“TG'ase”) are shown in the bar graph of FIG. 14a, the INV indicated by clear bars and the TG'ase by shaded bars, both with error limits shown.
# transglutaminase mRNA = assay: Transglutaminase mRNA in keratinocytes by Northern Blot; format: cell-based, Human; details: for TG'ase mRNA level, induction: calcium 1.2 mM, 10 μM
# Protocol: as §1, §2, §3, §4
# [2] = 10 μM alone, 24 hours (Example 17)
# [3] = low calcium (0.03 mM), 24 hours, 500 μM
compound,measurement,setting,value
Cc1c(C)c2c(c(C)c1O)CCC(C)(COc1ccc(CC3SC(=O)NC3=O)cc1)O2 (stereo not shown) [troglitazone],effect on TEWL / barrier development,[1]; 10 μM,had no effect
C[C@@](O)(CCO)CC(=O)O [mevalonate],effect on TEWL / barrier function,[1]; 200 μM,"neither mevalonate at 200 μM, 25-hydroxy cholesterol at 50 μM), squalene at 50 μM, geranylgeraniol at 50 μM, cis-farnesol at 50 μM, nor nerolidol at 100 μM significantly affected barrier function"
same,INV mRNA level,involucrin mRNA; [2],had no effect
same,involucrin (INV) mRNA level compared to the vehicle alone,involucrin mRNA; [3],neither cholesterol (“chol”) nor mevalonate (“mev”) had any effect
same,TG'ase mRNA level,transglutaminase mRNA; [2],had no effect
same,transglutaminase (TG'ase) mRNA level compared to the vehicle alone,transglutaminase mRNA; [3],neither cholesterol (“chol”) nor mevalonate (“mev”) had any effect
CC(C)CC[C@@H](O)[C@@H](C)[C@H]1CC[C@H]2[C@@H]3CC=C4C[C@@H](O)CC[C@]4(C)[C@H]3CC[C@]12C [22(R)-hydroxycholesterol],"INV mRNA level, induction",involucrin mRNA; 24 hours,2.3-2.4 times the control
same,"TG'ase mRNA level, induction",transglutaminase mRNA; 24 hours,2.5-2.9 times the control
C[C@H](CCCC(C)(C)O)[C@H]1CC[C@H]2[C@@H]3CC=C4C[C@@H](O)CC[C@]4(C)[C@H]3CC[C@]12C [25-hydroxycholesterol],"INV mRNA level, induction",involucrin mRNA; 24 hours,2.3-2.4 times the control
same,"TG'ase mRNA level, induction",transglutaminase mRNA; 24 hours,2.5-2.9 times the control
